PubChem BioAssay AID686943 | Drosophila RNAi Screening Center – 2013
Purpose: 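Knockdowns that increase or decrease active ERK after insulin receptor stimulation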 (primary screen). Cell system: Drosophila S2R+ haemocyte-like cells expressing YFP-tagged ERK (Rolled). Reagents: long dsRNA against Drosophila genes. Conditions: insulin stimulation versus unstimulated cells; dose and duration not given. Read-out: 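Antibody staining for doubly phosphorylated ERK divided by ERK-YFP signal, as plate z-scores, in insulin-treated and untreated cells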. Scale: replicate 1, z-score of dpERK with insulin: higher = more active ERK per ERK-YFP after insulin.
The screen tested about 23,000 reagents; below is an unselected part of those with a known target gene and a result. 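Extra replicates exist only for a retested subset of genes; insulin dose and duration not given; both raised and lowered dpERK matter.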 A plus sign joins genes that one reagent is predicted to hit. Further read-outs or replicates are left out here. The record does not give: the amount of reagent, the time to read-out.

replicate 1, z-score of dpERK with insulin, by target gene and reagent
OS9 + Hf: SID104183184 0.96
Pvf1 (PDGF- and VEGF-related factor 1): SID104199816 1.05
nerfin-1 (nervous fingers 1): SID104188521 -0.69
UQCR-C1 (Ubiquinol-cytochrome c reductase core protein 1): SID104195300 -0.04
Fadd (Fas-associated death domain): SID104193914 0.05
Semp1 (Seminal metalloprotease-1): SID104181666 -0.08
dpr19 (defective proboscis extension response 19): SID104182029 -0.27
BCL7-like: SID104197521 0.45
Sec20 (Secretory 20): SID104192087 -1.17
jef (jet fuel): SID104185990 0.43
mRpL11 (mitochondrial ribosomal protein L11): SID104195274 -0.52
CG15711: SID104186374 0.58
Mtmr6 (Myotubularin related protein 6): SID104183838 0.29
CG5084: SID104186705 -0.85
CG42789: SID104193585 -0.21
CG15765: SID104197863 -1.6
tsh (teashirt): SID104183532 1.42
deltaCOP (Coat Protein (coatomer) delta): SID104198552 2.26
CG31546: SID104192109 -0.06
side-IV + asRNA:CR17025: SID104194625 3.73; SID104194960 -0.72

4 entries from above, reformatted.
nerfin-1 (nervous fingers 1) [SID104188521]
- replicate 1, z-score of dpERK with insulin: -0.69

UQCR-C1 (Ubiquinol-cytochrome c reductase core protein 1) [SID104195300]
- replicate 1, z-score of dpERK with insulin: -0.04

Fadd (Fas-associated death domain) [SID104193914]
- replicate 1, z-score of dpERK with insulin: 0.05

Semp1 (Seminal metalloprotease-1) [SID104181666]
- replicate 1, z-score of dpERK with insulin: -0.08

The list goes on.
replicate 1, z-score of dpERK with insulin, by target gene and reagent
Use1 (Unconventional SNARE in the ER 1): SID104189972 0.63
Orc2 (Origin recognition complex subunit 2): SID104196568 0.96
S6kII (Ribosomal protein S6 kinase II): SID104200437 0.54
cold (coiled): SID104180330 -0.9
Pngl (PNGase-like): SID104184706 0.09
CG7029: SID104195969 -0.16
CG14174: SID104189967 0.43
Sps2 (Selenophosphate synthetase 2): SID104183233 -0.57
Nazo: SID104194135 -0.92
Art8 (Arginine methyltransferase 8): SID104182322 0.21
CG12493: SID104188071 -0.05
CG11241: SID104191433 0.1; SID104201712 0.41
CG11298: SID104183892 2.86
Ehbp1 (Eps15 homology domain containing protein-binding protein 1): SID104186353 -0.53
sip1 (septin interacting protein 1): SID104183401 -0.41; SID104202051 0.04
CG31141: SID104193438 0.33
RpL30 (Ribosomal protein L30): SID104181879 -1.06
Rh4 (Rhodopsin 4): SID104191060 0.58
mrn (marionette): SID104190705 0.32
CG18809: SID104199610 -1.61
ScsbetaA (Succinyl-coenzyme A synthetase beta subunit, ADP-forming): SID104194238 -1.04
CG1582: SID104199524 0.82
puc (puckered): SID104196826 -4.3
CG31524: SID104201602 -0.06
CG3323: SID104198095 -0.1
Jig: SID104194766 0.4
CG17202: SID104194986 -1.48
atilla: SID104182763 0.15
CheB42b (Chemosensory protein B 42b): SID104202237 -0.45
CG14000: SID104182124 -0.01
CG17078: SID104180276 -1.06
CG12609: SID104199265 -0.9
CG43737: SID104199401 -0.24; SID104199402 -0.01
